Experimental data: PubChem BioAssay AID1224826 (NIAID, 2016)
Here is an unselected part of about 17,000 deposited reagents. In the full data, about 1,110 (6.6%) were called active. 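Active means lowered or raised reporter signal; replicate intensities are raw and not normalised per plate.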 Entries without a mark were called inactive. Reagents against one gene are numbered here. Not all columns of the deposit are shown.

- Screen: 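Knock-downs that raise or lower Tnf reporter signal after endotoxin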 (primary screen)
- System: RAW264.7 G9 macrophages from mouse bearing reporters for p65 (GFP) and the Tnf promoter (mCherry)
- Knock-down reagent: siRNA pool against mouse genes, 100 nM
- Time to read-out: 16 h of LPS stimulation, after 2 days of siRNA transfection
- Conditions: bacterial lipopolysaccharide (Salmonella minnesota R595), 10 ng/ml
- Read-out: 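Imaged Tnf reporter mCherry in nuclei, minus background, normalised per plate to the median and expressed as robust z-scores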
- Reading the numbers: Tnf reporter robust z-score: higher = stronger Tnf promoter reporter signal after LPS
- Rule for the call: 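Called active when robust z-score is at most -1.3, matching the median of the Tlr4 knock-down control, or over 3; control wells and wells with under 50 cells never active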
- Meaning of the calls: active = Tnf reporter clearly lowered or raised; inactive = no clear change in Tnf reporter

gene knocked down | reagent | Tnf reporter robust z-score | fewer than 50 cells in well
Grm4 (GeneID 268934) | 1 | -0.12 | enough cells in well
Mrgpra3 (GeneID 233222) | 1 | 0.44 | enough cells in well
Bcl2l13 (GeneID 94044) | 1 | -0.49 | enough cells in well
Pglyrp1 (GeneID 21946) | 1 | 0.09 | enough cells in well
Elf3 (GeneID 13710) | 1 | -0.5 | enough cells in well
Ikbke (GeneID 56489) | 1 | 1.2 | enough cells in well
Ido2 (GeneID 209176) | 1 | 0.01 | enough cells in well
Cd209c (GeneID 170776) | 1 | -2.08 (active) | enough cells in well
Pbld2 (GeneID 67307) | 1 | 0.28 | enough cells in well
Hepacam (GeneID 72927) | 1 | – | fewer than 50 cells per well; well left out of calls
Dnajc7 (GeneID 56354) | 1 | 0.37 | enough cells in well
H1f3 (GeneID 14957) | 1 | -0.36 | enough cells in well
Crb1 (GeneID 170788) | 1 | -0.95 | enough cells in well
Arhgap31 (GeneID 12549) | 1 | 1 | enough cells in well
Megf9 (GeneID 230316) | 1 | 0.81 | enough cells in well
Dok5 (GeneID 76829) | 1 | -0.52 | enough cells in well
Cabp5 (GeneID 29865) | 1 | -1.45 (active) | enough cells in well
Mios (GeneID 252875) | 1 | 1.57 | enough cells in well
Exo5 (GeneID 73172) | 1 | -0.22 | enough cells in well
Aspa (GeneID 11484) | 1 | 0.15 | enough cells in well
Or14j10 (GeneID 258625) | 1 | -1.21 | enough cells in well
Wfdc18 (GeneID 14038) | 1 | 2.34 | enough cells in well
Abhd1 (GeneID 57742) | 1 | 0.58 | enough cells in well
Dcc (GeneID 13176) | 1 | 0.67 | enough cells in well
Lypd6b (GeneID 71897) | 1 | – | fewer than 50 cells per well; well left out of calls
Psme3ip1 (GeneID 102122) | 1 | – | fewer than 50 cells per well; well left out of calls
Itga10 (GeneID 213119) | 1 | -0.61 | enough cells in well
Tfpi2 (GeneID 21789) | 1 | -0.2 | enough cells in well
Grina (GeneID 66168) | 1 | -1.4 (active) | enough cells in well
Kcna7 (GeneID 16495) | 1 | -0.11 | enough cells in well
Speer4b (GeneID 73526) | 1 | 2.68 | enough cells in well
Ubash3a (GeneID 328795) | 1 | 0.2 | enough cells in well
Klra21 (GeneID 93968) | 1 | -0.83 | enough cells in well
Nkx2-4 (GeneID 228731) | 1 | -1.29 | enough cells in well
Bcap29 (GeneID 12033) | 1 | -0.31 | enough cells in well
Disc1 (GeneID 244667) | 1 | -0.27 | enough cells in well
Cryge (GeneID 12968) | 1 | 0.83 | enough cells in well
Col11a1 (GeneID 12814) | 1 | 0.6 | enough cells in well
Kptn (GeneID 70394) | 1 | -0.33 | enough cells in well
Or6ae1 (GeneID 258954) | 1 | – | fewer than 50 cells per well; well left out of calls
Mb (GeneID 17189) | 1 | -0.17 | enough cells in well
Slc15a3 (GeneID 65221) | 1 | 3.22 (active) | enough cells in well
Arf1 (GeneID 11840) | 1 | -1.34 (active) | enough cells in well
Or1f19 (GeneID 258859) | 1 | 1.56 | enough cells in well
Ercc4 (GeneID 50505) | 1 | 0.09 | enough cells in well
Carns1 (GeneID 107239) | 1 | 1.18 | enough cells in well
Gpr88 (GeneID 64378) | 1 | -0.69 | enough cells in well
Col1a1 (GeneID 12842) | 1 | 0.16 | enough cells in well
Slc4a4 (GeneID 54403) | 1 | 0.47 | enough cells in well
Ces2c (GeneID 234671) | 1 | 0.97 | enough cells in well
Cdkl1 (GeneID 71091) | 1 | 3.14 (active) | enough cells in well
Xkrx (GeneID 331524) | 1 | 0.59 | enough cells in well
Creb5 (GeneID 231991) | 1 | 0.4 | enough cells in well
Creb5 (GeneID 231991) | 2 | -0.68 | enough cells in well
Or4c10 (GeneID 258980) | 1 | -1.37 (active) | enough cells in well
Nek11 (GeneID 208583) | 1 | -0.59 | enough cells in well
Ttll12 (GeneID 223723) | 1 | -0.57 | enough cells in well
Samhd1 (GeneID 56045) | 1 | -1.37 (active) | enough cells in well
